For some of these results: The hits were mostly taken out for another list; the other results follow.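 Rule for the calls: active = AUC reduced over 20% with Padj below 0.05 in at least 2 of 3 replicates; inactive = otherwise.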 The list shows a part of the results, in another mix than the full data.
Assays:
Test in all cases: growth AUC relative to DMSO control (median of replicates) (fraction); higher = more growth (less inhibition), active = hit call of the paper
Conditions in all cases: 20 µM; 24 h
[1] = system: Akkermansia muciniphila
In short: (§1)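 Three biological replicates, each grown on a separate day, were combined as a median for every value. In each, a gut bacterial monoculture in mGAM started at OD600 0.05 and grew anaerobically at 37 °C with 20 µM compound (1% DMSO), with OD600 read hourly over 24 h. Area under the growth curve was normalised against the plate median of solvent-only wells, or against row and column medians on the industrial chemical plate, after the minimum OD was set to 0.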

[2] = system: Bacteroides caccae
In short: as §1

[3] = system: Bacteroides clarus
In short: as §1

[4] = system: Bacteroides dorei
In short: as §1

[5] = system: Bacteroides stercoris
In short: as §1

[6] = system: Bacteroides thetaiotaomicron
In short: as §1

[7] = system: Bacteroides uniformis
In short: as §1

[8] = system: Bifidobacterium longum subsp. longum
In short: as §1

[9] = system: Clostridium difficile
In short: as §1

[10] = system: Collinsella aerofaciens
In short: as §1

[11] = system: Coprococcus comes
In short: as §1

[12] = system: Escherichia coli ED1a
In short: as §1

[13] = system: Escherichia coli IAI1
In short: as §1

[14] = system: Eubacterium rectale
In short: as §1

[15] = system: Fusobacterium nucleatum subsp. animalis
In short: as §1

[16] = system: Lactobacillus gasseri
In short: as §1

[17] = system: Lactobacillus paracasei
In short: as §1

[18] = system: Odoribacter splanchnicus
In short: as §1

[19] = system: Parabacteroides distasonis
In short: as §1

[20] = system: Parabacteroides merdae
In short: as §1

[21] = system: Roseburia intestinalis
In short: as §1

[22] = system: Streptococcus salivarius
In short: as §1

Measured: growth AUC

Oc1c(Cl)cc(Cl)cc1Cl
inactive: [1] 1.05 | [2] 0.981 | [3] 0.97 | [4] 1.01 | [5] 1.06 | [6] 1.01 | [7] 0.97 | [8] 0.916 | [9] 1.01 | [10] 0.983 | [11] 0.992 | [12] 0.979 | [13] 0.968 | [14] 0.999 | [15] 0.965 | [16] 0.931 | [17] 1.03 | [18] 0.992 | [19] 0.988 | [20] 0.971 | [21] 0.95 | [22] 1
